Laboratory results published in patent US20220073911.
For at least one entry, the source does not settle the construct or the ends of the probe. Where cells or extracts were used, other partners may take part. A negative result means that nothing was seen under these conditions.

Tested on: Peanut protein extract (target allergen Ara h 1)
Assay: binding assay
Conditions: anchor-displacement chip signal, 100 nM aptamer, 5000 vs 0 ppm peanut, stated minimal response to peanut, protein in an extract, single-stranded DNA

Q: Does “TAGGGAAGAGAAGGACATATGATGCACTGGCTGACCTACACGTGGACGATGTGTTGACTAGTACATGACCACTTGA [PC36]” bind (p=0.612 and 0.069)?
A: Result: no binding

Q: Does “TAGGGAAGAGAAGGACATATGATCGTACCGCAAGTGACGTGTCCGTGCCGTGATTGACTAGTACATGACCACTTGA [PC60]” bind (p=0.981)?
A: Result: no binding

Q: Does “TAGGGAAGAGAAGGACATATGATGCGTGTCAGCAATACGTCCTCATCTGCCCGTTGACTAGTACATGACCACTTGA [PC87]” bind (p=0.920 and 0.791)?
A: Result: no binding
